Only a part is listed here, and it is no random draw. Calls are pooled over several reports, among them a noisy single-well screen.

What all share (settings): stereoisomer not certain
In one test the target is T1, UniProt Q8VGJ3.
T1 sequence (whole entry): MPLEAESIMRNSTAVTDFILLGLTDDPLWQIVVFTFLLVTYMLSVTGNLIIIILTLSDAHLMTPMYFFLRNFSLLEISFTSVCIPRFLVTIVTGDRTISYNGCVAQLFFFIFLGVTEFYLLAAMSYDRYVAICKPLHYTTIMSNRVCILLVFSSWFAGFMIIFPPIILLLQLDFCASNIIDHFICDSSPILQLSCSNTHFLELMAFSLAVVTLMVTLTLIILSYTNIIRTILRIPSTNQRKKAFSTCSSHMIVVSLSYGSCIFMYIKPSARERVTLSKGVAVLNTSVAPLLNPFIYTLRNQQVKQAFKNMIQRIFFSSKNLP
Summed up:
(§1)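 Whether a receptor–molecule pair is responsive (active) rests on the original authors' judgment that its measured signal was statistically different from baseline. Pairs without that judgment are non-responsive (inactive). Sources used varied assay methods, commonly transient luciferase assays in mammalian cell lines.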

The next test deals with T2, UniProt Q8VGL0.
T2 sequence (whole entry): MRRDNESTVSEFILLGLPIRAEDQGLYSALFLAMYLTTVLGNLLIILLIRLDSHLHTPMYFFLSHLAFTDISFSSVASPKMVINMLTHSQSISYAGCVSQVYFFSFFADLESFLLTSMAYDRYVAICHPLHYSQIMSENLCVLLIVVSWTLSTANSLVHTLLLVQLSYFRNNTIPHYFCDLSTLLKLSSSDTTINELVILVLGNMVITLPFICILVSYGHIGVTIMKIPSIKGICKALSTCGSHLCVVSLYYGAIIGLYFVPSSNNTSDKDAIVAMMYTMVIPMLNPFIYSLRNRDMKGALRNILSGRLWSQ
In a few lines: as §1

The target of a further test is T3, UniProt Q8VGU3.
T3 sequence (whole entry): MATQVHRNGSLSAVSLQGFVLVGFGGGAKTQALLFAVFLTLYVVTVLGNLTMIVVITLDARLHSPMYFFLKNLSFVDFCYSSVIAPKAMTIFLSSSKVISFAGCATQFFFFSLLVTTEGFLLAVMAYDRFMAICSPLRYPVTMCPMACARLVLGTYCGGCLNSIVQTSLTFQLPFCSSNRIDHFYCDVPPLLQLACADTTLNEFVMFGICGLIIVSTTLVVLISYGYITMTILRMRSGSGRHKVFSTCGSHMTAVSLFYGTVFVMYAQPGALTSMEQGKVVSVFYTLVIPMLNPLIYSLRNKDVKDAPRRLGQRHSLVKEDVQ
In a few lines: as §1

The next test deals with T4, UniProt Q8VGV7.
T4 sequence (whole entry): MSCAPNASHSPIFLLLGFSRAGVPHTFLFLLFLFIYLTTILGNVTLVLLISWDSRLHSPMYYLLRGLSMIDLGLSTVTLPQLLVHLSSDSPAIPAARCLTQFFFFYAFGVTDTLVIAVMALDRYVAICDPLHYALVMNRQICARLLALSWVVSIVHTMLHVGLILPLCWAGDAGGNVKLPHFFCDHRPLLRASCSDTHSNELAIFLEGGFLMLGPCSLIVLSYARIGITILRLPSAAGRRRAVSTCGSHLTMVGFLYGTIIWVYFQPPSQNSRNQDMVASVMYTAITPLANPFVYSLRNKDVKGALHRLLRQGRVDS
In a few lines:
as §1

The target in the next test is T5, UniProt Q8VGX3.
T5 sequence (whole entry): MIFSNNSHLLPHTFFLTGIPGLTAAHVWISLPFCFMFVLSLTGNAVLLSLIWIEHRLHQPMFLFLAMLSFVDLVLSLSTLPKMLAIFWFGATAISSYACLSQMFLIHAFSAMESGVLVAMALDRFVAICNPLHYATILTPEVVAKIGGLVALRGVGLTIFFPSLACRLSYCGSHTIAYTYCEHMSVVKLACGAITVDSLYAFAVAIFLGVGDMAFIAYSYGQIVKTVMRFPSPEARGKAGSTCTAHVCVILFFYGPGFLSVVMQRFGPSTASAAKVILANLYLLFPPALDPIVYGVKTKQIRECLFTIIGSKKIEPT
Summed up:
as §1

The target of the next test is T6, UniProt Q8VGX5.
T6 sequence (whole entry): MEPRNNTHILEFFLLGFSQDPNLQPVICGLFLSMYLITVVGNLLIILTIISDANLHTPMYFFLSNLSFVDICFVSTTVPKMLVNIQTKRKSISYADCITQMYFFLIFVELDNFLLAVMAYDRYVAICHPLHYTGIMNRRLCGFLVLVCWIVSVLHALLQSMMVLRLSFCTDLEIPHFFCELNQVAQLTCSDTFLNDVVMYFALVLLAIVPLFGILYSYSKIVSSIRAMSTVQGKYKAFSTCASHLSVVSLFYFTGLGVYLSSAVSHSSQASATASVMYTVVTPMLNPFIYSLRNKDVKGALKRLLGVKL
Summed up:
as §1

A further test addresses T7, UniProt Q8VGZ2.
T7 sequence (whole entry): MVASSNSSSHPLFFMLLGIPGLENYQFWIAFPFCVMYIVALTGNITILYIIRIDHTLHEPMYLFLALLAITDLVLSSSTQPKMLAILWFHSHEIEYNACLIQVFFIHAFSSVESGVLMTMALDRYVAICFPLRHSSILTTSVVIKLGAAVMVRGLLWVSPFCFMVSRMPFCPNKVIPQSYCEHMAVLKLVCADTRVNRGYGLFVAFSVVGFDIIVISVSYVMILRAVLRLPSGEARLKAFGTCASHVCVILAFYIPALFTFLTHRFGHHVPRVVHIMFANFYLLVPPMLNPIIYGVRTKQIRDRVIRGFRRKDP
Summed up:
as §1

Another test has as its target T8, UniProt Q8VGH1.
T8 sequence (whole entry): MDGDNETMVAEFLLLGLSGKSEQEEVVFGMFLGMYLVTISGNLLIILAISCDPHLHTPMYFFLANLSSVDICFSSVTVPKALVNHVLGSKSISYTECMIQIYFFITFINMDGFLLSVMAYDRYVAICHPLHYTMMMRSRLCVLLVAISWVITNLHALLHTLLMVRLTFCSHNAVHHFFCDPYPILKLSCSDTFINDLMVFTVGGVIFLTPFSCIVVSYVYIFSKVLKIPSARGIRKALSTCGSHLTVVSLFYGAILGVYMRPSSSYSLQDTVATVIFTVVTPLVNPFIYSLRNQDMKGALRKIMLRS
Summed up: as §1

The next test has as its target T9, UniProt Q8VGJ1.
T9 sequence (whole entry): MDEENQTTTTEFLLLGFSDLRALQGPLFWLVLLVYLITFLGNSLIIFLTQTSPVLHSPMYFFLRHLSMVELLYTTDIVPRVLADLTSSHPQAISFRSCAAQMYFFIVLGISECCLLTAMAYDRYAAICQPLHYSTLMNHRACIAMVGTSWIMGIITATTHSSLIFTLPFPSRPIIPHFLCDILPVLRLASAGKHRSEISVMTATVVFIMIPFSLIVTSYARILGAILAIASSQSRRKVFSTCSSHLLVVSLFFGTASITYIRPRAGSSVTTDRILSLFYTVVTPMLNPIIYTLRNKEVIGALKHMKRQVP
In a few lines: as §1

The next test concerns the target T10, UniProt Q8VGJ5.
T10 sequence (whole entry): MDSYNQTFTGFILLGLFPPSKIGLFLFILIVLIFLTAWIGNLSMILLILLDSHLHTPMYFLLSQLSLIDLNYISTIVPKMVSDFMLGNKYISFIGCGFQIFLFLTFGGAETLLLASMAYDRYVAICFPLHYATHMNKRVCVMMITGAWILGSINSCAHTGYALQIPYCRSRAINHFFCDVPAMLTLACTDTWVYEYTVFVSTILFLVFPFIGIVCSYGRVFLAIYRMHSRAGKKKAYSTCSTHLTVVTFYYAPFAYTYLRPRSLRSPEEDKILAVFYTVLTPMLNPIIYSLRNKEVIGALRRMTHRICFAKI
Summed up: as §1

The target of the next test is T11, UniProt Q8VGL7.
T11 sequence (whole entry): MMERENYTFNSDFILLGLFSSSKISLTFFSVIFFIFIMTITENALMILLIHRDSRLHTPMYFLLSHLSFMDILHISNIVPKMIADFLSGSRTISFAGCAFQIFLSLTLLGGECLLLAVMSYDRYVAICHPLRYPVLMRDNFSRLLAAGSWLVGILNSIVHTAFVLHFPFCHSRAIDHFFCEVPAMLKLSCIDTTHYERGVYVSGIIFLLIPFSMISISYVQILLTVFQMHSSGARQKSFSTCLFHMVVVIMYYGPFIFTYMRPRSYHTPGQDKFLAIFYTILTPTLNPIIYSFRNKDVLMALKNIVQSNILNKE
Summed up:
as §1

The target of a further test is T12, UniProt Q8VGM2.
T12 sequence (whole entry): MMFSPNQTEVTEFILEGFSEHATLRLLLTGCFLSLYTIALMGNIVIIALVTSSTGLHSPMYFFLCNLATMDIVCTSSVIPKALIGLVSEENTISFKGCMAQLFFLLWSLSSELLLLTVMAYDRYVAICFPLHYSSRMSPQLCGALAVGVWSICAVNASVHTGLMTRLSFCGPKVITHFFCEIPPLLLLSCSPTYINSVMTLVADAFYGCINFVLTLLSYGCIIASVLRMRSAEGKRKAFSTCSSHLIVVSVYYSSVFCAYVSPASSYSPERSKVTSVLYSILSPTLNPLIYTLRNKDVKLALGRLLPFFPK
Summed up:
as §1

A further test addresses T13, UniProt Q8VGP6.
T13 sequence (whole entry): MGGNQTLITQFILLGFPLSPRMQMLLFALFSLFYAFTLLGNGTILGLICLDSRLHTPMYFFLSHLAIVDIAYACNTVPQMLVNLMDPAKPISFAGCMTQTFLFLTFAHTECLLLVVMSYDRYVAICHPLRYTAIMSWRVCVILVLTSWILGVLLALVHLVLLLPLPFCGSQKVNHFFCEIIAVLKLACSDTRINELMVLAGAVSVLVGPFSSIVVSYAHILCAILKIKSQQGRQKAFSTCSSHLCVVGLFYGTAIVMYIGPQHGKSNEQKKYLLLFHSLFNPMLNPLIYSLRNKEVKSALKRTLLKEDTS
In a few lines: as §1

A further test deals with T14, UniProt Q8VGQ3.
T14 sequence (whole entry): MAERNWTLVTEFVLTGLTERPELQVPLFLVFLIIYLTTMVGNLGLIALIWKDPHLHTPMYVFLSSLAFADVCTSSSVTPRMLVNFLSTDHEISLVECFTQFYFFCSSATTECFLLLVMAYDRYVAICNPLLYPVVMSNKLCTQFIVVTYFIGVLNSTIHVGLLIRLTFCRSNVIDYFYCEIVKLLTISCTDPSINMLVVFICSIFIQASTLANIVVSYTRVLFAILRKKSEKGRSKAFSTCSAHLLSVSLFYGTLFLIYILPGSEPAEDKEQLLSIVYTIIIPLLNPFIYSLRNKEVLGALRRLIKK
In a few lines: as §1

For a further test, the target named is T15, UniProt Q8VGT4.
T15 sequence (whole entry): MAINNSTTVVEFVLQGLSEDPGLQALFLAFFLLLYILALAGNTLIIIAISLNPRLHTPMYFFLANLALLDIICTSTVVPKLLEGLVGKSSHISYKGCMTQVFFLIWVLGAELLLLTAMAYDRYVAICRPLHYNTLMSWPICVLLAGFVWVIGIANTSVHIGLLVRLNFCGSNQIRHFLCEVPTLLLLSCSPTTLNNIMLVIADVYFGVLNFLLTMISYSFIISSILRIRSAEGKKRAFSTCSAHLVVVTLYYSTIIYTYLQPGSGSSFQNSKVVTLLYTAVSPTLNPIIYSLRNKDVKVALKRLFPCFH
Summed up: as §1

Another test addresses T16, UniProt Q8VGV1.
T16 sequence (whole entry): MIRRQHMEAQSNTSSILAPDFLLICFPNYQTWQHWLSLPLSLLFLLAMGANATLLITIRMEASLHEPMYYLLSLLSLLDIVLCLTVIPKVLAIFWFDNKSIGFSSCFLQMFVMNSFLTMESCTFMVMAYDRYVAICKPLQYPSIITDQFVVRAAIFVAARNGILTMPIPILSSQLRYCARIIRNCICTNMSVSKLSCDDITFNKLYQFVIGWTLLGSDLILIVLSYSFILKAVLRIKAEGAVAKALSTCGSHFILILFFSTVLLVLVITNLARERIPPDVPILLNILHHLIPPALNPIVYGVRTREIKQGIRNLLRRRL
In a few lines: as §1

For a further test, the target named is T17, UniProt Q8VGX8.
T17 sequence (whole entry): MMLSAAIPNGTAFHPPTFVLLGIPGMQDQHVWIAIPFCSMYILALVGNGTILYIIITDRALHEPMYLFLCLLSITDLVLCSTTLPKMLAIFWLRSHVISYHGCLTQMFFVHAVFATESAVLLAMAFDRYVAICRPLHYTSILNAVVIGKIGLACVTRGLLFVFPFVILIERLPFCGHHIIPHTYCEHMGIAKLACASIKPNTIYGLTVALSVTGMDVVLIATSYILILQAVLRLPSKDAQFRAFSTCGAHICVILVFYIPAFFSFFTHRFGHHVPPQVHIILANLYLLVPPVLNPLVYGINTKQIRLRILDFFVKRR
In a few lines: as §1

For another test, the target named is T18, UniProt Q8VGY6.
T18 sequence (whole entry): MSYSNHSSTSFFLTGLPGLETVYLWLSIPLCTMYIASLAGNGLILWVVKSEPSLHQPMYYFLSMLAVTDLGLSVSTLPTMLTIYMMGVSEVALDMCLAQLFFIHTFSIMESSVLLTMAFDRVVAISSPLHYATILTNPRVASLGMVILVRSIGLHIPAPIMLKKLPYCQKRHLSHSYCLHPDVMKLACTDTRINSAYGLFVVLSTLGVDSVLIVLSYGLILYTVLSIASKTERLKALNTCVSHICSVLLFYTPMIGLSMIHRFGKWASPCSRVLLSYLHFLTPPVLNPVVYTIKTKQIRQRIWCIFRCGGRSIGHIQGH
Summed up: as §1
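Note: active if original authors judged signal statistically different from baseline.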

`COC(=O)c1ccccc1O`: the “odorant receptor agonist call” value in the test with UniProt Q8VGJ3, in the test with UniProt Q8VGL0, in the test with UniProt Q8VGU3, in the test with UniProt Q8VGV7, with UniProt Q8VGX3 and with UniProt Q8VGX5 was “inactive” each time. Besides, the “odorant receptor agonist call” value with UniProt Q8VGZ2 is “inactive”.

Turning to `CCCCO`, the “odorant receptor agonist call” value with UniProt Q8VGJ3, in the test with UniProt Q8VGL0, with UniProt Q8VGU3, with UniProt Q8VGV7, with UniProt Q8VGX3 and with UniProt Q8VGX5 was “inactive” throughout. Besides, the “odorant receptor agonist call” value in the test with UniProt Q8VGZ2 is “inactive”.

As to `CC12CCC(C1)C(C)(C)C2=O` (stereo not drawn), the “odorant receptor agonist call” value with UniProt Q8VGH1, with UniProt Q8VGJ1, with UniProt Q8VGM2, with UniProt Q8VGP6, with UniProt Q8VGQ3 and in the test with UniProt Q8VGT4 was “inactive” throughout. For the same compound, the “odorant receptor agonist call” value with UniProt Q8VGV1, with UniProt Q8VGX8, with UniProt Q8VGY6 and in the test with UniProt Q8VGZ2 was “inactive” throughout. Also, the “odorant receptor agonist call” value in the test with UniProt Q8VGJ5, in the test with UniProt Q8VGL0, with UniProt Q8VGL7 and with UniProt Q8VGX5 was “active” throughout.

For the origin of these results see the M2OR odorant receptor database.
